Data as given in article PMC10372749.
Results are given in words; binding and its absence hold for the method and conditions named. In cells and extracts the contact can be indirect. Some binding calls cover weakened binding; strength is not graded here. Where a sequence is shown, tags or fusion partners need not be part of it.

Protein sequences, listed by entry. Tags and fused reporters are not part of them.
UniProt A5YKK6: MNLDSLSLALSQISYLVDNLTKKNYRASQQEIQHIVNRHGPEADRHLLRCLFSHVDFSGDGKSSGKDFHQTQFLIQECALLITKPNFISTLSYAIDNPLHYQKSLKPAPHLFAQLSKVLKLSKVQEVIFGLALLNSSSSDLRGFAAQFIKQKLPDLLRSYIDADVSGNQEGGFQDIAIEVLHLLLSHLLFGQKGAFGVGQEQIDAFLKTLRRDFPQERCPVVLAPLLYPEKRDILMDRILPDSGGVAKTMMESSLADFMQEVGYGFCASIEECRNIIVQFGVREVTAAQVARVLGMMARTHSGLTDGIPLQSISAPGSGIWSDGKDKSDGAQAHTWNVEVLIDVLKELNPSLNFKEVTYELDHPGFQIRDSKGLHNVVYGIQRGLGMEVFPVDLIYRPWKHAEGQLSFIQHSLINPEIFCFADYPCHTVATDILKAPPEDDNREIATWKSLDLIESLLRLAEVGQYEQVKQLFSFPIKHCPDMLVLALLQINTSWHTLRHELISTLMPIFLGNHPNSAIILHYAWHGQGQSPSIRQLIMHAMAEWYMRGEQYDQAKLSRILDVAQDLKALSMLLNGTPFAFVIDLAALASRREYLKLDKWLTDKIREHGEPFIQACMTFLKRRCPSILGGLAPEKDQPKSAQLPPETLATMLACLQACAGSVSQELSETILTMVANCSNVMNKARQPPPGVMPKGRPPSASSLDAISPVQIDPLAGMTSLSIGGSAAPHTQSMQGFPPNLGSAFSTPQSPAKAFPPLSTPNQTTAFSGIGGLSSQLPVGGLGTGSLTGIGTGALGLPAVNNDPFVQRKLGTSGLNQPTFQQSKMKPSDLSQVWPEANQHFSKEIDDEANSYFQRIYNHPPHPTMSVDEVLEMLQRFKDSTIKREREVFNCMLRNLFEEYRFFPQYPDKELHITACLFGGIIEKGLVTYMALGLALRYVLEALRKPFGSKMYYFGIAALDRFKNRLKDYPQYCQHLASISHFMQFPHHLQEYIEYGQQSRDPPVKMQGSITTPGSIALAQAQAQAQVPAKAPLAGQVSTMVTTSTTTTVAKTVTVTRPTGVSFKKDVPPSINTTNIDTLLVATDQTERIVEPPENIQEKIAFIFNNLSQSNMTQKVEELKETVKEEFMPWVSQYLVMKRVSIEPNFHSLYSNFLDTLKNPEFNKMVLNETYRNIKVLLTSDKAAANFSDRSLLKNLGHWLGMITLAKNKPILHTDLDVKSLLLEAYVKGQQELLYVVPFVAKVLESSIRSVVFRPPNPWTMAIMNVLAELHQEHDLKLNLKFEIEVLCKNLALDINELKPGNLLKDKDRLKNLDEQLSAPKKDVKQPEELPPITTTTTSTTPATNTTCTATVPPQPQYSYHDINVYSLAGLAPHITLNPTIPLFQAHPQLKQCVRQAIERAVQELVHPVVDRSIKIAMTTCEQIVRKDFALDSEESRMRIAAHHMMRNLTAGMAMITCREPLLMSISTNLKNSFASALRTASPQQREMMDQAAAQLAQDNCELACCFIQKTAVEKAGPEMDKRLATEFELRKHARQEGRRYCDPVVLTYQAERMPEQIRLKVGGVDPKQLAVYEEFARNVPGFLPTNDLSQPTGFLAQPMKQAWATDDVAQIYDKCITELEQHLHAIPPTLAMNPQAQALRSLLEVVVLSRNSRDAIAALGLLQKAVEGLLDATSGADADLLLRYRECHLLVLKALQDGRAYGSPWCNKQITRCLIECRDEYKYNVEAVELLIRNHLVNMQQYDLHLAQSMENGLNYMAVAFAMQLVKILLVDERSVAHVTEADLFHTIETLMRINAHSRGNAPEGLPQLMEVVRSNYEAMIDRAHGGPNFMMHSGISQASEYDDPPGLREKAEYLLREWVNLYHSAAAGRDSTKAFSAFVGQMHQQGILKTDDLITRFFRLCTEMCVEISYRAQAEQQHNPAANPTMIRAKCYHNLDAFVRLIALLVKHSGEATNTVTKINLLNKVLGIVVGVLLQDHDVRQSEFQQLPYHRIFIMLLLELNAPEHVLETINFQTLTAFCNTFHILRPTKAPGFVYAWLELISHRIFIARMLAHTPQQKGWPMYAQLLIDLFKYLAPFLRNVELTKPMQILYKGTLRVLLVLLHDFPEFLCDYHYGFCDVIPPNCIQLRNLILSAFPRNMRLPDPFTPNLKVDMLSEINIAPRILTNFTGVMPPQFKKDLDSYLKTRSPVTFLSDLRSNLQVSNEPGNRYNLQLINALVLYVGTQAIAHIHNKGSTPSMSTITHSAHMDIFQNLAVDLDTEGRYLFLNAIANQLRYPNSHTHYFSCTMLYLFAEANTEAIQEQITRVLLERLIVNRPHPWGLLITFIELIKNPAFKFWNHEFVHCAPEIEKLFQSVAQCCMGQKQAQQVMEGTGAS
UniProt Q9H9A5: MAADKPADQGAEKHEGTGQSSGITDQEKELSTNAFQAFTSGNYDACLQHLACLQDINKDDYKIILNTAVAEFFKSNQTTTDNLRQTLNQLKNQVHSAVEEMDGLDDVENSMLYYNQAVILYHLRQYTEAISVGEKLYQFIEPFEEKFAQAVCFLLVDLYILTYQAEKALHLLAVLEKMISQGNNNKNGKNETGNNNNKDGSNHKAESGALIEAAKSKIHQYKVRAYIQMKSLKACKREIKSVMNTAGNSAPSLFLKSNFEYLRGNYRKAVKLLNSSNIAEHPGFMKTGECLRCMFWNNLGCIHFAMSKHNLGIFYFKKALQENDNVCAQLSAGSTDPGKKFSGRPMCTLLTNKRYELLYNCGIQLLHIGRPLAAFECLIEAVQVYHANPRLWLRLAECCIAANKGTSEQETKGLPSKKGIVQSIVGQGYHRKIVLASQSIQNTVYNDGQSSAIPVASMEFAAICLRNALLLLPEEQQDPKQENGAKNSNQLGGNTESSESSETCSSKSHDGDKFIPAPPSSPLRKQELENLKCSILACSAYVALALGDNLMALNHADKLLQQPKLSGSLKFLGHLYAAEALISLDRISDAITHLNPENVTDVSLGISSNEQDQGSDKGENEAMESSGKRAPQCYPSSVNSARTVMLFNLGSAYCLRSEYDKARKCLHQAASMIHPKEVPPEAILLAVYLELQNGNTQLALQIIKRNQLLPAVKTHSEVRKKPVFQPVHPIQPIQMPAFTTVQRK

Target: T1, EBV early gene product BRRF1, HA-tagged (pLIX402-BRRF1) (Epstein-Barr virus (type I)) (UniProt P03207)
T1 sequence: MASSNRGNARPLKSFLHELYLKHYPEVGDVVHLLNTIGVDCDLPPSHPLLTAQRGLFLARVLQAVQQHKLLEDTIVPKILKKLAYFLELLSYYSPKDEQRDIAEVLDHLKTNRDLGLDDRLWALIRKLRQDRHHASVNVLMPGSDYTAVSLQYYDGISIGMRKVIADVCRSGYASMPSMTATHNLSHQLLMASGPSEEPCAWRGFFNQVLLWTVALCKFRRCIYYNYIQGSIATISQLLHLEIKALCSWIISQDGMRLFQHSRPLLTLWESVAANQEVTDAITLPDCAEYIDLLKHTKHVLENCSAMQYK
Test: co-IP; anti-HA complexes from P3HR-1 expressing BRRF1 cDNA, immunoblot, n = 3

| Substance | binding |
| --- | --- |
| CCR4/NOT complex member CNOT1, endogenous (from UniProt A5YKK6 1-2376) | binds |
| CCR4/NOT complex member CNOT10, endogenous (from UniProt Q9H9A5 1-744) | binds |
